PubChem BioAssay AID1259405 – NCATS, 2018
The whole screen tested about 50,000 reagents; shown is an unselected part. About 4,000 of them (8%) were called active. 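Mouse siRNA library applied to hamster cells; one well for each siRNA.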 Reagents against one gene are numbered here. Reagent sequences are not shown.

Assay: 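Knock-downs that lift recombinant protein yield in hamster ovary cells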 (primary screen)
System: Chinese hamster CHO-K1 ovary cells with stable secreted eGFP expression
Reagent: single siRNA against mouse genes, 0.8 pmol siRNA per well (2 µl of 400 nM stock)
Duration: 3 days
Measured: 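Per-well intracellular GFP measured by laser scanning cytometry, plus viability from ATP luminescence, each relative to plate median of non-targeting control wells, in %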
Direction: GFP, % of control: higher = more GFP per well, higher productivity; viability (ATP), % of control: higher = more viable cells (more ATP)
Active means: 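a knock-down is called active if GFP reaches 120% or more of non-targeting control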

no.	Target gene	siRNA no.	GFP, % of control	viability (ATP), % of control	Outcome
1	Gipc2	1	71.9	40.8	inactive
2	Gipc2	2	90.5	69.6	inactive
3	Gipc2	3	48.2	52	inactive
4	Ipo5	1	122	80.9	active
5	Ipo5	2	58.7	59.9	inactive
6	Ipo5	3	96.8	92.9	inactive
7	Syk	1	70.4	60.8	inactive
8	Syk	2	85.5	65.7	inactive
9	Syk	3	82.5	65.9	inactive
10	Ccs	1	86.8	48.6	inactive
11	Ccs	2	129	120	active
12	Ccs	3	78.9	152	inactive
13	Fam53b	1	85.4	101	inactive
14	Fam53b	2	57	79.8	inactive
15	Abcf3	1	79.8	107	inactive
16	Abcf3	2	71.9	55.1	inactive
17	Abcf3	3	54.8	63.2	inactive
18	Mepce	1	88.6	91.5	inactive
19	Mepce	2	74.6	78.4	inactive
20	Il17rd	1	86	94.6	inactive
21	Il17rd	2	95.7	60	inactive
22	Il17rd	3	92.6	121	inactive
23	Il17rd	4	74.3	68.6	inactive
24	Il17rd	5	99.3	88.8	inactive
25	Il17rd	6	79.2	80.4	inactive
26	Thap2	1	66.1	66.4	inactive
27	Thap2	2	74.3	84.8	inactive
28	Thap2	3	88	91.6	inactive
29	Atoh7	1	78.6	60.7	inactive
30	Atoh7	2	36.6	41.9	inactive
31	Atoh7	3	59.2	67.5	inactive
32	Ppl	1	117	99.9	inactive
33	Ppl	2	95.1	73.4	inactive
34	Ppl	3	109	102	inactive

A few values from the entries so far.
Ipo5 #2, Outcome → inactive
Result for Abcf3 #3 in “Outcome”: inactive
